Results reported in PubChem BioAssay AID1347076 (National Center for Advancing Translational Sciences (NCATS), 2019).
The campaign covered roughly 400,000 compounds. About 13,000 (3.2%) were called active. Inconclusive means that the source gave no clear call. Such entries were picked first, then a sample of the others. Calls follow the shape of the dose curve; as a rule, active = well fitted cell-killing curve with a large enough effect; inconclusive = small, poorly fitted or top-dose-only effect, or effect the other way; inactive = flat fitted curve, though single readings scatter. A potency beside an inconclusive call is a rough fit, not a confirmed value.
% is scaled to controls: 0 for no effect and ±100 for the full control effect; potency is read from the fitted curve at half-maximal effect.

Assay: qHTS assay for MDR1-selective chemotherapeutics: Primary screen using the drug-selected MDR subline cells KB-V1; also: nearly all actives have a fitted effect of over 60% in size
Details: KB-V1 MDR cells viability, CellTiter-Glo, 72 h; activity change, negative = cytotoxicity: at 46.1 µM (top of the series)
How it was run: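 Drug-selected KB-V1 cells, grown in DMEM lacking phenol red with 10% FBS, receive compound titrations; after three days at 37 degrees C, surviving cell ATP is quantified by CellTiter-Glo luminescence and responses normalized and curve-fitted.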
For O=c1c2cc(NC(=S)NCc3cccnc3)ccc2nc2n1CCCCC2, the “activity change, negative = cytotoxicity” value was inactive: -0.801%.
For O=C(OCC(=O)N1CCOCC1)C(c1ccccc1)c1ccccc1, the Potency was active: 20.6 µM.
In the case of O=C(NCc1ccccn1)c1ccccc1OCc1ccccc1Cl, the Potency was inconclusive: 25.9 µM [cytotoxic, single point].
In the case of CCCCc1c(Cc2cccc(F)c2)ncn1CCc1ccccc1OC, the Potency was inconclusive: 23.1 µM [cytotoxic, single point].
For O=C(c1cccc(S(=O)(=O)N2CCc3ccccc32)c1)N1CCN(c2ccccc2)CC1, the Potency was inconclusive: 25.9 µM [cytotoxic, single point].
With COc1ccc(/C=C2\N=C(c3ccccc3Cl)NC2=O)cc1 the Potency was inconclusive: 6.51 µM [cytotoxic, partial curve, poor fit].
With C/C(=N\Nc1ccc([N+](=O)[O-])cc1[N+](=O)[O-])c1ccc(-n2nncc2C(C)(C)C)cc1 the Potency was inconclusive: 18.4 µM [cytotoxic, single point].
With CCOc1ccccc1C(=O)NCCNC(=O)c1ccccc1OCC the Potency was inconclusive: 0.0092 µM [cytotoxic, full curve, poor fit].
In the case of CCCCSc1cnn(-c2ccccc2)c(=O)c1SCCCC, the Potency was active: 18.4 µM.
In the case of COc1ccc(-n2nc(C(=O)NCC(=O)N3CCCC3)c3ccccc3c2=O)cc1Cl, the Potency was inconclusive: 2.59 µM [cytotoxic, partial curve, poor fit].
In the case of CCOC(=O)CN(C(=O)CSc1nnc(-c2ccc(OC)c(OC)c2)o1)c1ccccc1, the Potency was inconclusive: 8.2 µM [cytotoxic, partial curve].
For CC(C)(C)OC(=O)NCc1nc(N)n[nH]1, the Potency was inconclusive: 16.4 µM [rising, partial curve, poor fit].
For Cc1cc(Cl)nc(-n2nc(C)cc2C)n1, the “activity change, negative = cytotoxicity” value was inactive: 13%.
In the case of COCC(=O)Nc1ccc2c(c1)[C@@H]1C[C@H](CC(=O)NCc3cccc(F)c3)O[C@@H](CO)[C@@H]1O2, the Potency was inconclusive: 5.8 µM [rising, full curve].
In the case of CCOC(=O)c1c(C)[nH]c(C(=O)COC(=O)[C@H](C)N2C(=O)C3CCCCC3C2=O)c1C (some centres undefined), the Potency was inconclusive: 23.1 µM [cytotoxic, single point].
In the case of O=C(Nc1cc(C(=O)N2CCN(c3ccccc3O)CC2)ccc1Cl)c1cccs1, the “activity change, negative = cytotoxicity” value was inactive: -16%.
For Cc1cccc(N2CCN(C(=O)c3ccc4ccccc4c3)CC2C)c1 (centres undefined), the Potency was inconclusive: 23.1 µM [cytotoxic, single point].
For Cc1ccc(S(=O)(=O)CCSc2nc(C)cc(C(F)(F)F)c2C#N)cc1, the Potency was active: 13 µM.
In the case of CCN1CCN(c2ncc3c(n2)CCN(Cc2cc(F)cc(F)c2)C3)CC1, the Potency was inconclusive: 20.6 µM [cytotoxic, single point].
With CC(=O)c1cccc(NC(=O)N2CCC(NC(=O)c3ccco3)CC2)c1 the Potency was inconclusive: 29.1 µM [rising, single point].
For CCOc1cc2sc(N3CCC(C(=O)Nc4ccc(C)cc4C)CC3)nc2cc1Br, the “activity change, negative = cytotoxicity” value was inactive: -2.77%.
For O=C(N[C@@H](Cc1ccccc1)C(=O)CCl)OCc1ccccc1, the Potency was active: 23.1 µM.
In the case of Cc1ccc(C2C(=O)N(C3CCCC3)CC(=O)N2C2CCCCC2)cc1 (centres undefined), the Potency was active: 2.91 µM.
For FC(F)(F)c1cc(Cc2nc3ccccc3n2C(CCc2ccccc2)c2nc3ccccc3[nH]2)cc(C(F)(F)F)c1 (centres undefined), the Potency was inconclusive: 8.2 µM [cytotoxic, partial curve].
With Cc1ccc(-c2cc(-c3ccc(F)cc3)nc(N)c2C#N)o1 the “activity change, negative = cytotoxicity” value was inactive: -3.65%.
For CCSc1nnc2c(n1)[nH]c1c(C)cccc12, the Potency was active: 16.4 µM.
For COc1ccc(N=Cc2cccc(C)c2O)cc1Cl, the Potency was inconclusive: 16.4 µM [rising, partial curve, poor fit].
With COc1ccc(S(=O)(=O)N(CC(=O)Nc2ccccc2Br)Cc2ccccc2)cc1 the Potency was inconclusive: 25.9 µM [cytotoxic, single point].
For CCOC(=O)c1ccc[n+](CC(=O)Nc2cc(C(F)(F)F)ccc2Cl)c1, the Potency was inconclusive: 29.1 µM [rising, single point].
For Cc1cc(C)c(S(=O)(=O)NCc2cccnc2)c(C)c1, the Potency was inconclusive: 13 µM [cytotoxic, partial curve].
In the case of COCCCNC(=O)/C(C#N)=C/c1c(N2CCN(c3ccccc3)CC2)nc2ccccn2c1=O, the Potency was inconclusive: 8.2 µM [cytotoxic, partial curve].
In the case of CCCC(=O)OCCNc1cc(SCCC(=O)OC)c2nonc2c1[N+](=O)[O-], the “activity change, negative = cytotoxicity” value was inactive: 0%.
With COc1ccccc1N1CCN(C(=O)c2c(-c3ccccc3)noc2C)CC1 the Potency was inconclusive: 2.59 µM [cytotoxic, full curve].
With COc1ccc(CNC(=O)C2CC(C)=CCC2C(=O)O)cc1 (centres undefined) the Potency was inconclusive: 16.4 µM [rising, partial curve].
With CC(C)C(=O)NC(c1ccco1)c1ccc2cccnc2c1O (centres undefined) the Potency was active: 4.61 µM.
In the case of CCOCCCn1c(=N)c(S(=O)(=O)c2ccc(C)cc2)cc2c(=O)n3cccc(C)c3nc21, the Potency was inconclusive: 4.11 µM [cytotoxic, partial curve].
With CCc1ccc(NC(=O)c2cc(S(=O)(=O)N3CCc4ccccc43)cn2C)cc1 the Potency was inconclusive: 11.6 µM [cytotoxic, partial curve, poor fit].
In the case of CCC1(c2ccc(F)cc2)NC(=O)N(CC(=O)Nc2ccc3c(c2)OCCO3)C1=O (centres undefined), the Potency was inconclusive: 0.731 µM [rising, full curve, poor fit].
For COc1ccccc1NC(=O)CSc1nnc(-c2ccccc2)o1, the “activity change, negative = cytotoxicity” value was inactive: 1.09%.
In the case of COc1ccc(O)c(C(=O)c2cnn(-c3ccc(Cl)cc3)c2)c1, the Potency was inconclusive: 11.6 µM [cytotoxic, partial curve].
With CCOc1ccc(S(=O)(=O)N2CCCC(C(=O)N3CCOCC3)C2)cc1C (centres undefined) the Potency was inconclusive: 20.6 µM [cytotoxic, single point].
With CC(=O)N1CCCc2cc(S(=O)(=O)N(C)CC(=O)Nc3ccc(F)cc3Cl)ccc21 the Potency was inconclusive: 2.31 µM [cytotoxic, full curve].
In the case of COc1cccc(CNC(=O)CNC(=O)N2CC(=O)Nc3ccccc32)c1, the Potency was inconclusive: 0.206 µM [rising, full curve, poor fit].
In the case of COc1ccccc1OCC(=O)N(Cc1nc(-c2ccc(Cl)cc2)no1)C(C)C, the Potency was inconclusive: 29.1 µM [cytotoxic, single point].
With CCOc1ccc(C(=O)Nc2ccc(N3CCN(C(C)=O)CC3)cc2)cc1[N+](=O)[O-] the Potency was inconclusive: 29.1 µM [rising, single point].
In the case of O=C(C1CCN(S(=O)(=O)c2ccc(Cl)s2)CC1)N1CCN(c2ccccc2)CC1, the Potency was active: 18.4 µM.
In the case of c1ccc2sc(NCC3CCCO3)nc2c1 (centres undefined), the Potency was inconclusive: 18.4 µM [rising, single point].
With C/C(CC(=O)Nc1ccc(Cl)c(C(F)(F)F)c1)=N\NC(=O)c1cc2ccccc2cc1O the Potency was inconclusive: 20.6 µM [cytotoxic, single point].
For COc1ccc(CCNC(=O)c2ccccc2OCc2ccccc2)cc1, the Potency was inconclusive: 10.3 µM [cytotoxic, partial curve].
In the case of Cc1ccc(-c2nnc(-c3ccccc3)c(-c3ccccc3)n2)cc1, the Potency was active: 18.4 µM.
For CSc1ccc(/C=C/C(=O)OCC(=O)c2ccc[nH]2)cc1, the “activity change, negative = cytotoxicity” value was inactive: 1.05%.
For O=[N+]([O-])c1ccc(C[n+]2cccc3ccccc32)cc1, the “activity change, negative = cytotoxicity” value was inactive: 2.23%.
With O=C(COC(=O)CCOc1ccccc1)NCCc1ccccc1 the Potency was inconclusive: 5.8 µM [rising, partial curve].
In the case of Cc1ccc(CN2C(=O)c3ccccc3C2C(=O)NC2CCCCCC2)cc1 (centres undefined), the “activity change, negative = cytotoxicity” value was inactive: -5.05%.
With CCOC(=O)C1=C(C)Nc2ncnn2C1c1cc(Br)ccc1F (centres undefined) the Potency was active: 20.6 µM.
In the case of COc1ccc(Cl)cc1Nc1cc(C)nc2ncnn12, the “activity change, negative = cytotoxicity” value was inactive: -1.36%.
In the case of COC(=O)C(CC(=O)c1ccc(Cl)cc1)c1ccccc1 (centres undefined), the Potency was inconclusive: 20.6 µM [cytotoxic, single point].
For CCc1nc2ccc(C(=O)NC3CCN(C)CC3)cn2c1N(C)CCC(C)C, the “activity change, negative = cytotoxicity” value was inactive: -16.7%.
For COc1ccc(N2c3ccccc3CN(Cc3ccccc3)[C@@H](C)[C@H]2Cc2c(C)cccc2C)cc1, the Potency was inconclusive: 16.4 µM [cytotoxic, single point].
For O=C(O)c1cccc2[nH]c(C(F)(F)F)nc12, the “activity change, negative = cytotoxicity” value was inactive: 11.4%.
For CCOC(=O)c1sc2ncnc(N3CCN(C)CC3)c2c1C, the Potency was inconclusive: 11.6 µM [cytotoxic, partial curve, poor fit].
For O=C(NCc1ccco1)c1cc(-c2ccco2)on1, the “activity change, negative = cytotoxicity” value was inactive: -15.2%.
With CCOc1ccccc1NC(=O)c1c(C)cc(C)nc1SCC(=O)c1cccc(OC)c1 the Potency was inconclusive: 20.6 µM [cytotoxic, partial curve].
For CC1(NC(=O)c2cc(Cl)nc3ccccc23)CCS(=O)(=O)C1 (centres undefined), the Potency was inconclusive: 32.6 µM [rising, single point].
For CCc1ccc(-n2nc(C)c3c(C(=O)Nc4cccc(C(F)(F)F)c4)cc(C)nc32)cc1, the Potency was inconclusive: 3.66 µM [cytotoxic, single point].
For CC(=O)Nc1ccc(-c2ccnc3c2CC(C(=O)Nc2ccc(C(C)C)cc2)O3)cc1 (centres undefined), the Potency was inconclusive: 10.3 µM [cytotoxic, partial curve, poor fit].
In the case of COc1ccc(NS(=O)(=O)c2cccc(C(=O)NNC(=O)CN3C(=O)NC(C)(C)C3=O)c2)cc1, the Potency was inconclusive: 10.3 µM [rising, partial curve, poor fit].
For NC(=O)c1nsc(C(=O)N(c2cccc(O)c2)C(C(=O)NC2CCCC2)c2ccc(Cl)cc2)c1N (centres undefined), the activity change, negative = cytotoxicity was inconclusive: -61.1%.
For COc1ccc(C(=O)CSc2ncnc3nc[nH]c23)cc1, the Potency was inconclusive: 18.4 µM [cytotoxic, single point].
